Measurements: PubChem BioAssay AID1347076 (National Center for Advancing Translational Sciences (NCATS), 2019)
About 13,000 (3.2%) of roughly 400,000 compounds were called active. The inconclusive results got no clear call from the source; some entries with a clear call stand among them for comparison. Calls follow the shape of the dose curve; as a rule, active = well fitted cell-killing curve with a large enough effect; inconclusive = small, poorly fitted or top-dose-only effect, or effect the other way; inactive = flat fitted curve, though single readings scatter. A potency beside an inconclusive call is a rough fit, not a confirmed value.

assay: qHTS assay for MDR1-selective chemotherapeutics: Primary screen using the drug-selected MDR subline cells KB-V1; conditions: KB-V1 MDR cells viability, CellTiter-Glo, 72 h; activity change, negative = cytotoxicity: at 46.1 µM (top of the series); also: nearly all actives have a fitted effect of over 60% in size
How it was run: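 KB-V1 cells (P-gp-expressing MDR subline of KB-3-1) in phenol-red-free DMEM with 10% FBS were exposed to library compounds over a concentration series for 72 h at 37 degrees C. Viability read by CellTiter-Glo luminescence; concentration-effect curves fitted after normalization.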
% is scaled to controls: 0 for no effect and ±100 for the full control effect; potency is read from the fitted curve at half-maximal effect.

Compound | activity change, negative = cytotoxicity | Potency
CN(C(=O)c1ccc(NC(=O)Cc2ccc(NC(=O)C3CCN(S(=O)(=O)c4cccc([N+](=O)[O-])c4)CC3)cc2)cc1)C1CCCC1 | inactive: 6.5% | –
Cc1cccc(N2CCc3c2nc2ccc(Br)cc2c3N)c1 | inactive: 15.2% | –
COc1cc2c(cc1[N+](=O)[O-])-c1ccccc1C2 | – | inconclusive: 4.61 µM [cytotoxic, full curve]
Cc1ccc(C2=Nc3ccccc3N(CC(=O)NCc3ccccc3Cl)C(=O)C2)cc1C | inactive: -26.4% | –
CCOC(=O)CN(C(=O)Cn1nnc(-c2ccc(OC)cc2)n1)C(C(=O)NC1CCCC1)c1ccc(F)cc1 (stereo not given) | inactive: 0% | –
O=C(NCCc1ccc(Cl)cc1)c1ccc(S(=O)(=O)N2CCCC2)cc1 | – | inconclusive: 20.6 µM [cytotoxic, single point]
COCCNC(=O)/C(C#N)=C/c1c(N2CC(C)OC(C)C2)nc2ccccn2c1=O (stereo not given) | – | inconclusive: 9.2 µM [cytotoxic, partial curve]
O=C(Nc1c(C(=O)N2CCN(c3ccccc3)CC2)oc2ccccc12)c1ccco1 | inactive: -11.9% | –
CCCc1ccc(C(C)NC(=S)NCc2ccc(F)cc2)cc1 (stereo not given) | inactive: -38.6% | –
CC[N+](C)(C(=O)O)/C(=C\c1ccccc1)c1ccnc2ccccc12 (stereo not given) | – | inconclusive: 23.1 µM [rising, single point]
CCCCOc1ccc(CSC(=N)N)cc1[N+](=O)[O-] | – | inconclusive: 18.4 µM [cytotoxic, single point]
CC(C)C1C(=O)N(Cc2cn(CCC3OCCO3)nn2)CCS(=O)(=O)N1Cc1ccc(-c2ccccc2C(F)(F)F)cc1 (stereo not given) | – | inconclusive: 29.1 µM [cytotoxic, single point]
c1ccc2c(N3CCOCC3)nc(-c3ccncc3)nc2c1 | – | active: 13 µM
CC(Sc1ccc(S(=O)(=O)N2CCN(C)CC2)cn1)C(=O)NC1CCCC(C)C1C (stereo not given) | – | inconclusive: 16.4 µM [cytotoxic, partial curve, poor fit]
O=C(Nc1ccc(N2CCOCC2)c(S(=O)(=O)Nc2ccc(Cl)cc2)c1)c1ccc(=O)[nH]n1 | inactive: -9.54% | –
COc1cc([N+](=O)[O-])cc(/C=N/NC(=O)C(O)(c2ccccc2)c2ccccc2)c1O | inactive: -14% | –
CC1CCN(C(=O)CSc2nnc3c(n2)[nH]c2ccccc23)CC1 | – | active: 16.4 µM
CCc1ccccc1N(C1=NCCCS1)S(=O)(=O)c1ccc(C(C)(C)C)cc1 | – | inconclusive: 18.4 µM [cytotoxic, partial curve]
Cc1ccc(S(C)(=O)=O)cc1C(=O)OCC(=O)N1CCCC1=O | – | inconclusive: 9.2 µM [rising, partial curve, poor fit]
O=C(Nc1ccc(F)cc1)C1(S(=O)(=O)c2ccc(Cl)cc2)CC1 | inactive: 0.81% | –
O=C1c2cccc3cc([N+](=O)[O-])cc(c23)C(=O)N1/N=C/c1ccc(O)cc1O | inactive: -2.43% | –
Cc1ccccc1CN1c2ccccc2-c2nc(SCC(=O)NCc3ccccc3)ncc2S1(=O)=O | – | inconclusive: 29.1 µM [cytotoxic, single point]
Cc1cccc(N(CC(=O)NCCSc2ccccn2)S(=O)(=O)c2ccccc2)c1 | – | inconclusive: 9.2 µM [cytotoxic, partial curve, poor fit]

Given with tabs: entries from further up.
Compound	activity change, negative = cytotoxicity	Potency
CC(Sc1ccc(S(=O)(=O)N2CCN(C)CC2)cn1)C(=O)NC1CCCC(C)C1C (stereo not given)	–	inconclusive: 16.4 µM [cytotoxic, partial curve, poor fit]
O=C(Nc1ccc(N2CCOCC2)c(S(=O)(=O)Nc2ccc(Cl)cc2)c1)c1ccc(=O)[nH]n1	inactive: -9.54%	–

Later entries.

Compound | activity change, negative = cytotoxicity | Potency
Cc1noc(C)c1CSCC(=O)Nc1cc(C(F)(F)F)ccc1N1CCCCC1 | – | inconclusive: 8.2 µM [cytotoxic, partial curve]
CC(C)c1ccc(NC(=O)COC(=O)[C@@H]2CCCN2C(=O)c2cccs2)cc1 | – | inconclusive: 29.1 µM [rising, single point]
O=C(CCC1CCCCC1)NNC(=O)c1cnccn1 | – | inconclusive: 8.2 µM [cytotoxic, partial curve, poor fit]
CCOC(=O)N1CCN(C(=O)c2ccc3c(c2)N(Cc2ccc(F)cc2)CCS3)CC1 | – | inconclusive: 20.6 µM [cytotoxic, single point]
COc1cc(C)nc(NC(=O)NC(=O)c2ccc(C(F)(F)F)cc2)n1 | inactive: 15.2% | –
Cc1ccccc1NC(=O)CN1C(=O)S/C(=C\c2ccc(-c3cc(C(=O)O)ccc3C)o2)C1=O | – | inconclusive: 9.2 µM [cytotoxic, partial curve, poor fit]
Cc1ccc(/C=N/Nc2ccc(C(=O)O)cc2)s1 | – | inconclusive: 6.51 µM [cytotoxic, partial curve, poor fit]
CN(C)S(=O)(=O)c1cccc(NC(=O)c2cc(-c3cccs3)nn2-c2ccccc2)c1 | – | active: 5.8 µM
CCN(CC)c1ccc(NC(=O)c2sc3nc4c(cc3c2N)CN(C)CC4)cc1 | inactive: -3.96% | –
C=C1C(=O)C23C(O)C1CCC2C12CCCC(C)(COC(C)=O)C1C(O)C3(O)OC2 (stereo not given) | – | inconclusive: 4.11 µM [cytotoxic, full curve, poor fit]
O=C(NC1CCCC1)C(c1ccccc1)N(Cc1cccnc1)C(=O)Cc1cccs1 (stereo not given) | – | inconclusive: 20.6 µM [cytotoxic, single point]
CC[C@@H](NC(=O)[C@@H](Cc1ccccc1)NC(=O)CC[C@H]1O[C@@H](n2ccc(=O)[nH]c2=O)[C@H](O)[C@@H]1O)c1ccccc1 | inactive: 24.8% | –
COc1ccc(N/C=C/c2nc(SC)nnc2C)cc1 | inactive: 6.47% | –
CC(Sc1n[nH]c(N)n1)C(=O)NC1CCCCC1C (stereo not given) | – | inconclusive: 0.461 µM [rising, full curve]
COc1ccc(-c2sc3ccccc3c2C#CCCO)cc1 | inactive: -13.4% | –
Nc1nc(CSC(=S)N2CCOCC2)nc(Nc2ccc(F)cc2)n1 | – | active: 16.4 µM
O=C(Nc1nccs1)c1ccc(Br)c(S(=O)(=O)N2CCOCC2)c1 | inactive: -1.38% | –
CCn1c(=N)c(C(=O)NC2CCCCC2)cc2c(=O)n3cc(C)ccc3nc21 | inactive: 0% | –
CC1=C(C(=O)Nc2ccccc2)C(c2cccs2)C(C#N)=C(SCC#N)N1 (stereo not given) | inactive: -9.02% | –
O=C(NC(=S)Nc1ccc(CN2CCOCC2)cc1)c1ccc(-c2cccc(Cl)c2)o1 | – | inconclusive: 18.4 µM [cytotoxic, single point]
CCOc1cc(NC(=O)C2CC2)c(OCC)cc1NC(=O)CCn1nnc2ccccc21 | – | inconclusive: 3.66 µM [cytotoxic, partial curve]
COc1ccccc1CNC(=O)C(C)NS(=O)(=O)c1ccc(Br)cc1 (stereo not given) | – | inconclusive: 13 µM [cytotoxic, partial curve]
